Laboratory results: PubChem BioAssay AID504774 (Drosophila RNAi Screening Center, 2011)

- Assay: 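Fly genes whose loss alters survival after alkylation damage to DNA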 (primary screen)
- Cells: Drosophila Kc167 cells
- Reagent: long dsRNA against Drosophila genes, about 0.25 µg dsRNA per well
- Time to read-out: about 6 days: 3 days knock-down, then 3 days with or without MMS
- Conditions: methyl methanesulphonate 0.004% (w/v) for 3 days after knock-down
- Measured: 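Viability in wells given MMS, read as ATP luminescence, normalised by quantiles plate by plate and averaged across replicates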
- Scale: mean viability with MMS and viability with MMS: higher = more surviving cells after MMS
In all, the deposit lists about 23,000 reagents; shown is an unselected part of those that have a named target and a result. 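Values are quantile-normalised luminescence on an arbitrary scale; higher means more cells surviving MMS.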 The numbers tell different reagents against one gene apart. Further read-outs or replicates are left out here.

CG10026 (GeneID 35226)
- mean viability with MMS: 3.62e6
- viability with MMS, replicate 1: 4.06e6

CG8180 (GeneID 36713) #1
- mean viability with MMS: 3.59e6
- viability with MMS, replicate 1: 4.14e6

CG8180 (GeneID 36713) #2
- mean viability with MMS: 3.29e6
- viability with MMS, replicate 1: 3.75e6

Rcd-1 (GeneID 32966)
- mean viability with MMS: 3.69e6
- viability with MMS, replicate 1: 4.13e6

S-Lap2 (GeneID 326209)
- mean viability with MMS: 3.74e6
- viability with MMS, replicate 1: 4.25e6

form3 (GeneID 3346238) #1
- mean viability with MMS: 3.50e6
- viability with MMS, replicate 1: 3.83e6

form3 (GeneID 3346238) #2
- mean viability with MMS: 3.61e6
- viability with MMS, replicate 1: 4.12e6

form3 (GeneID 3346238) #3
- mean viability with MMS: 3.50e6
- viability with MMS, replicate 1: 3.99e6

Ndc1 (GeneID 42825)
- mean viability with MMS: 3.15e6
- viability with MMS, replicate 1: 3.67e6

The list goes on (2 carried over from the part before).
form3 (GeneID 3346238) #3
- mean viability with MMS: 3.50e6
- viability with MMS, replicate 1: 3.99e6

Ndc1 (GeneID 42825)
- mean viability with MMS: 3.15e6
- viability with MMS, replicate 1: 3.67e6

su(sable) (GeneID 31012)
- mean viability with MMS: 3.57e6
- viability with MMS, replicate 1: 4.32e6

intr (GeneID 43397)
- mean viability with MMS: 3.49e6
- viability with MMS, replicate 1: 3.94e6

Tcs5 (GeneID 38600)
- mean viability with MMS: 3.46e6
- viability with MMS, replicate 1: 4.03e6

DCTN5-p25 (GeneID 34873)
- mean viability with MMS: 3.47e6
- viability with MMS, replicate 1: 3.89e6

M1BP (GeneID 41042)
- mean viability with MMS: 2.97e6
- viability with MMS, replicate 1: 3.59e6
